The values below come from patent publication US8309721B2, “HSP90 inhibitory carbazole derivatives, compositions containing same and use thereof” (Sanofi, priority 2008, dated 2012).

The chains behind the UniProt entries cited, without tags or fusion partners.
UniProt P02829, whole entry: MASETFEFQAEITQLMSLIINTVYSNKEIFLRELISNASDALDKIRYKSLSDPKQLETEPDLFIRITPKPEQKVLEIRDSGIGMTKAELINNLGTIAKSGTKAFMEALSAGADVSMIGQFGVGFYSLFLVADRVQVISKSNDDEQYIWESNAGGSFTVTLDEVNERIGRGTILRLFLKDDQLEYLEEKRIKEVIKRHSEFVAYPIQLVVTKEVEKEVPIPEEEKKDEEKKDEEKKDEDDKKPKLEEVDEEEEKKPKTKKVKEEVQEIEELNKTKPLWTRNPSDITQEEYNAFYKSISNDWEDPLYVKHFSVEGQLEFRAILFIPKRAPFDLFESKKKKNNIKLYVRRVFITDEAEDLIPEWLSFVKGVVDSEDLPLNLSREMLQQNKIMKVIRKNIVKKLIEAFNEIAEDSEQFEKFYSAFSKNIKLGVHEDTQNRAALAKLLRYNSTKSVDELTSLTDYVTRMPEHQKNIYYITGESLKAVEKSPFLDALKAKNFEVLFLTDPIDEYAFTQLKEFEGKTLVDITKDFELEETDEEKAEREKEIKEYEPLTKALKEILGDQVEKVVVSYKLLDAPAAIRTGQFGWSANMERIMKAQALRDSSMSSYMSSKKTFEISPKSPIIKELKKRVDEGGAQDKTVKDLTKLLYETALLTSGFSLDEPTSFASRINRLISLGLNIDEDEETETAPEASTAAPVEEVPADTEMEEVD

One test concerns the target Hsp82 (Saccharomyces cerevisiae, UniProt P02829). Nature of the test: Hsp82/ATPase test (malachite green or PK/LDH coupled method). The class given is biochemical. The settings on record: read-out: Hsp82 ATPase IC50 μM; 1 μM Hsp82, 250 μM ATP, 37° C. As to the method: The biochemical activity of the compounds can in particular be evaluated by means of the “Hsp82/ATPase” test described below: The inorganic phosphate released during the hydrolysis of ATP by the ATPase activity of Hsp82 is quantified by the malachite green method. In the presence of this reagent, formation of the inorganic phosphate-molybdate-malachite green complex, which absorbs at a wavelength of 620 nm, occurs. The products to be evaluated are incubated in a reaction volume of 30 μl, in the presence of 1 μM Hsp82 and of 250 μM of substrate (ATP) in a buffer composed of 50 mM Hepes-NaOH (pH 7.5), 1 mM DTT, 5 mM MgCl2 and 50 mM KCl at 37° C. for 60 min. In parallel, an inorganic phosphate range of between 1 and 40 μM is made up in the same buffer. […] After incubation at ambient temperature for 20 min, the absorbance of the various wells is measured using a microplate reader at 620 nm. The inorganic phosphate concentration of each sample is then calculated from the standard curve. The ATPase activity of Hsp82 is expressed as concentration of inorganic phosphate produced in 60 minutes. The effect of the various products tested is expressed as percentage inhibition of the ATPase activity. […] In this case, the decrease in the NADH concentration, measured through the decrease in absorbance at the wavelength of 340 nm, is proportional to the concentration of ADP produced by Hsp82. […]

In test [1] the test system is Her2 receptor expression at the surface of SKBr3 cells. As to the kind of experiment: phenotypic SKBr3/HER2 cell test (Her2 surface expression by flow cytometry). The settings on record: read-out: SKBR3 HER2 IC50 μM, 24 h incubation, inhibition of Her2 expression. As to the method: The cellular activity of the compounds can in particular be evaluated by means of the phenotypic “SKBr3/HER2” cell test described below:
The SKBr3 […] adenocarcinoma cells, overexpressing the Her2 tyrosine kinase receptor, originate from the ATCC (HTB-30) and are cultured in McCoy's 5A medium supplemented with 10% FBS and 1% L-glutamine.
The cells are seeded in 12-well plates at a proportion of 125 000 cells per well in 1 ml of complete medium. The following day, the products are added at varying concentrations. After incubation for 24 h, the cells are trypsinized, washed with PBS and incubated with 100 ng of anti-Her2 antibody coupled to PE (Phycoerythrin) (BD 340552) for 30 minutes at 4° C. in the dark. The fluorescence due to the expression of the Her2 receptor at the surface of the cells is then read using a FACS Calibur flow cytometer (Becton-Dickinson). The percentage inhibition of Her2 expression as a function of the concentrations of product tested is fitted by the nonlinear regression technique (XLfit, equation 205) in order to measure an IC50 for each product.
On the technique in general: In flow cytometry, cells or beads pass a laser one at a time.

The match of structure and compound is tentative.

Consider `CC(CO)CCNc1cc(-n2c3ccccc3c3c(-c4cnc5ccccc5c4)cccc32)ccc1C(N)=O` (racemic), for which the IC50 (on Hsp82; in test [1]) was less than 1 µM in each case.
